PubChem BioAssay AID1259308 | NCATS, 2017

Assay: 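Knock-downs that increase output of a recombinant reporter protein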 (primary screen)
Cells: human HEK293 embryonic kidney cells stably expressing firefly luciferase (HEK-CMV-Luc2-Hygro)
Reagent: single siRNA against human genes, 0.8 pmol siRNA per well
Time to read-out: 72 h
Measured: 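Reporter luminescence and viable-cell signal on separate replicate plates, given as percent of non-targeting control and median/MAD z-scores, plus per-cell luciferase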
Reading the numbers: total luciferase, z-score and total luciferase, % of control: higher = more reporter protein produced; luciferase per cell, z-score: higher = more reporter output per viable cell; viable cells, % of control: higher = more viable cells
Hit rule: 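Active when the median/MAD z-score for overall luciferase is greater than 3; a gene was taken forward for validation with new siRNAs if at least two of its three siRNAs passed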
Calls: active = raised luciferase; inactive = no rise
In all, the deposit lists about 59,000 reagents; shown is a part drawn at random. Of all reagents, about 1,510 (2.6%) are marked active. 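Calls use total luciferase alone and ignore viability, so some active siRNAs may act by altering cell number.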 Reagents against one gene are numbered here.

Gene | reagent | total luciferase, z-score | total luciferase, % of control | luciferase per cell, z-score | viable cells, % of control | outcome
CELF6 | 1 | -0.681 | 68.3 | -1.14 | 103 | inactive
CELF6 | 2 | 0.466 | 91.1 | -0.472 | 115 | inactive
CELF6 | 3 | -0.112 | 79.7 | -0.192 | 93.6 | inactive
MTCP1 | 1 | -0.563 | 70.7 | 0.205 | 74.8 | inactive
MTCP1 | 2 | 1.02 | 102 | 0.894 | 90.2 | inactive
MTCP1 | 3 | 1.26 | 107 | 0.927 | 93.6 | inactive
PSTPIP1 | 1 | 3.88 | 159 | 2.85 | 83.9 | active
PSTPIP1 | 2 | -0.414 | 73.7 | -1.29 | 116 | inactive
PSTPIP1 | 3 | -0.0722 | 80.5 | 0.471 | 79.4 | inactive
PRPF3 | 1 | 0.536 | 92.5 | 0.957 | 80.4 | inactive
PRPF3 | 2 | 0.847 | 98.7 | 0.438 | 98.3 | inactive
PRPF3 | 3 | 1.01 | 102 | 1.38 | 79.2 | inactive
ACSL3 | 1 | 0.00447 | 82 | 0.672 | 76.7 | inactive
ACSL3 | 2 | 0.28 | 87.5 | 0.359 | 88.9 | inactive
ACSL3 | 3 | -0.261 | 76.7 | -0.185 | 90 | inactive
HCLS1 | 1 | 1.58 | 113 | 1.28 | 90.5 | inactive
HCLS1 | 2 | -0.683 | 68.3 | -0.48 | 86.6 | inactive
HCLS1 | 3 | -0.232 | 77.3 | -0.215 | 91.4 | inactive
FLNC | 1 | -0.489 | 72.2 | -1.03 | 106 | inactive
FLNC | 2 | 0.501 | 91.8 | 0.767 | 83.9 | inactive
FLNC | 3 | 3.19 | 145 | 1.88 | 98.8 | active
DCAF7 | 1 | 1.42 | 110 | 1.06 | 93.2 | inactive
DCAF7 | 2 | 1.33 | 108 | 1.7 | 77.4 | inactive
DCAF7 | 3 | 1.43 | 110 | 1.19 | 90.2 | inactive
NLRC3 | 1 | 1.72 | 116 | 1.99 | 76.9 | inactive
NLRC3 | 2 | 1.66 | 115 | 0.853 | 103 | inactive
NLRC3 | 3 | 2.13 | 124 | 1.69 | 88.9 | inactive
CNTLN | 1 | -0.629 | 69.4 | -1 | 101 | inactive
CNTLN | 2 | -0.88 | 64.4 | -0.287 | 77.6 | inactive
CNTLN | 3 | 0.0538 | 83 | 0.729 | 76.5 | inactive
TMEM132B | 1 | 0.29 | 87.6 | -0.582 | 114 | inactive
TMEM132B | 2 | 0.955 | 101 | 0.321 | 104 | inactive
TMEM132B | 3 | -0.688 | 68.2 | -1.52 | 114 | inactive
NLGN4Y | 1 | -0.161 | 78.7 | 0.216 | 83.1 | inactive
NLGN4Y | 2 | -1.19 | 58.1 | -1.37 | 93.2 | inactive
NLGN4Y | 3 | 1.5 | 112 | 1.64 | 81 | inactive

Continued (5 carried over from the part before).
Gene | reagent | total luciferase, z-score | total luciferase, % of control | luciferase per cell, z-score | viable cells, % of control | outcome
TMEM132B | 2 | 0.955 | 101 | 0.321 | 104 | inactive
TMEM132B | 3 | -0.688 | 68.2 | -1.52 | 114 | inactive
NLGN4Y | 1 | -0.161 | 78.7 | 0.216 | 83.1 | inactive
NLGN4Y | 2 | -1.19 | 58.1 | -1.37 | 93.2 | inactive
NLGN4Y | 3 | 1.5 | 112 | 1.64 | 81 | inactive
RAD9B | 1 | -0.559 | 70.8 | -0.989 | 103 | inactive
RAD9B | 2 | -0.504 | 71.9 | -0.464 | 90.7 | inactive
RAD9B | 3 | -0.339 | 75.1 | -0.661 | 99.9 | inactive
DROSHA | 1 | -0.282 | 76.3 | -0.604 | 99.9 | inactive
DROSHA | 2 | 1.45 | 111 | 1.09 | 93 | inactive
DROSHA | 3 | 0.189 | 85.6 | -0.165 | 99.9 | inactive
HTRA4 | 1 | -0.14 | 79.1 | -0.391 | 98 | inactive
HTRA4 | 2 | 0.107 | 84 | -0.299 | 102 | inactive
HTRA4 | 3 | -0.281 | 76.3 | -0.486 | 96.9 | inactive
ADAM29 | 1 | 0.801 | 97.8 | 0.725 | 90.3 | inactive
ADAM29 | 2 | -0.642 | 69.1 | -1.14 | 104 | inactive
ADAM29 | 3 | 0.061 | 83.1 | -0.183 | 97.4 | inactive
ATP4A | 1 | -1.38 | 54.4 | -0.805 | 75.1 | inactive
ATP4A | 2 | 0.374 | 89.3 | 0.29 | 92.5 | inactive
ATP4A | 3 | -0.78 | 66.4 | -1.31 | 105 | inactive
TASP1 | 1 | -1.13 | 59.4 | -0.867 | 83.4 | inactive
TASP1 | 2 | -0.478 | 72.4 | -0.487 | 91.9 | inactive
TASP1 | 3 | -0.548 | 71 | -0.62 | 93.4 | inactive
YTHDF1 | 1 | -0.299 | 75.9 | -0.564 | 98.4 | inactive
YTHDF1 | 2 | 1.15 | 105 | 0.638 | 98.9 | inactive
YTHDF1 | 3 | -0.234 | 77.2 | -0.236 | 91.8 | inactive
